# Experimental data reported in PubChem BioAssay AID624297 (National Center for Advancing Translational Sciences (NCATS), 2012).
# About 6,200 (1.8%) of roughly 340,000 compounds were called active. The shares of active, inactive and inconclusive entries below differ from those in the screen. The call rests on the fitted dose curve; in most records, active means well fitted activation curve with a large enough effect; inconclusive means small, poorly fitted or top-dose-only effect; inactive means no such curve, though single readings can be large or run the other way. A potency beside an inconclusive call is a rough fit, not a confirmed value.
# Assay: A quantitative high throughput screen for small molecules that induce DNA re-replication in SW480 colon adenocarcinoma cells. Further: nearly all actives have a fitted effect of over 55% in size. On re-replication activation: % of control where 0% means no effect.
# Conditions: Hoechst DNA content imaging, 48 h; re-replication activation: at 46.1 µM (top of the series) unless noted
# How it was run: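 Per well, 250 cells were exposed to pinned compound for 48 hr. Nuclear DNA was visualised with Hoechst (40 min, 37 C) and total object intensity recorded by fluorescence scanning.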
# Potency means the concentration at half of the fitted maximal effect.
Structure (SMILES),Potency,re-replication activation
COc1ccc(OCc2cc(C(=O)N3CCC(c4ccccc4)CC3)no2)c(Cl)c1,"inconclusive: 6.51 µM [activator, partial curve, poor fit]",
O=C(NC(=S)Nc1ccc2c(c1)OCCO2)c1ccccc1,"inconclusive: 20 µM [activator, single point]",
COc1ccc(NC(=O)/C(C#N)=C\c2ccc(N3CCOCC3)o2)cc1,inactive,
CC1(C)Cc2c(C#N)c(OCC(=O)c3ccc(Cl)cc3)nc(-c3ccoc3)c2CO1,"inconclusive: 0.82 µM [activator, partial curve, poor fit]",
Fc1ccc2c(c1)C1C=CCC1C(c1cc3c(cc1Br)OCO3)N2 (stereo not drawn),"inconclusive: 20.6 µM [activator, single point]",
Cc1ccccc1NC(=O)c1sc2nc3c(c(-c4ccco4)c2c1N)CCCC3,active: 16.4 µM,
CCCN(C(=O)CCOc1ccc(C(C)(C)C)cc1)c1c(N)n(Cc2ccccc2)c(=O)[nH]c1=O,inactive,
O=C(CN1CCN(S(=O)(=O)c2ccccc2)CC1)N1CCCCC1,inactive,
O=C(C[n+]1cccc(CNC(=O)c2ccc(OC(F)F)cc2)c1)Nc1ccccc1Cl,"inconclusive: 4.61 µM [activator, full curve, poor fit]",
Cc1ccc(SCC(=O)OCC(=O)Nc2ccc3[nH]c(=O)[nH]c3c2)cc1C,"inconclusive: 0.82 µM [activator, full curve, poor fit]",
CC1(C)C2CCC1(CS(=O)(=O)N1CCN(c3ccc(F)cc3)CC1)C(=O)C2 (stereo not drawn),"inconclusive: 23.1 µM [activator, partial curve, poor fit]",
COc1cc(/C=N/NC(=O)c2cc(-c3ccccc3C)nc3ccccc23)cc(OC)c1O,inactive,
NC(=O)c1cc([N+](=O)[O-])ccc1NCc1ccc(O)cc1,"inconclusive: 29.1 µM [activator, partial curve, poor fit]",
COc1ccc(NS(=O)(=O)c2ccc(NC(=O)c3ccccc3)cc2)nn1,"inconclusive: 25.9 µM [activator, partial curve, poor fit]",
Cc1ccc(Sc2c(CO)c(-c3ccccc3)nn2C)cc1,active: 0.82 µM,
COc1ccc(CSCC(=O)Nc2ccccc2SC)cc1,"inconclusive: 18.4 µM [activator, single point]",
Clc1ccc2oc3c(Cl)ncnc3c2c1,"inconclusive: 29.1 µM [activator, single point]",
COc1ccc2nc(SCC(=O)NCC(F)(F)F)[nH]c2c1,inactive,
O=c1[nH]c(=O)n(-c2ccccc2)c2c1C(C(F)(F)F)(C(F)(F)F)N=C(CCC1CCCCC1)N2,"inconclusive: 29.1 µM [activator, single point]",
O=C(c1ccc(F)cc1)C1CCN(C(=S)NCC2CCCO2)CC1 (stereo not drawn),"inconclusive: 6.51 µM [activator, partial curve, poor fit]",
CCCC(C(=O)Nc1cc(S(=O)(=O)N2CCOCC2)ccc1OC)c1ccccc1 (stereo not drawn),inactive,
COc1ccccc1C(=O)NNC(=O)c1nn(Cc2ccccc2)c(=O)c2ccccc12,"inconclusive: 20.6 µM [activator, single point]",
O=C(CCCN1C(=O)/C(=C/c2cccs2)SC1=S)NNC(=O)c1ccccc1O,"inconclusive: 6.51 µM [activator, single point]",

Structure (SMILES),Potency,re-replication activation
Cn1c(=O)c2c(nc(CN3CCN(c4ccccc4)CC3)n2CCc2ccccc2)n(C)c1=O,inactive,
O=C(CNCc1ccccn1)Nc1cc(S(=O)(=O)N2CCCCC2)ccc1Cl,inactive,
COc1ccc(C)cc1Nc1n[n+](-c2ccccc2)c(-c2cc(OC)c(OC)cc2Br)s1,"inconclusive: 16.4 µM [activator, single point]",
CC(C)N1CCC(N2CCN(Cc3ccc(-c4ccccc4Cl)o3)CC2CCO)CC1 (stereo not drawn),"inconclusive: 18.4 µM [activator, single point]",
COc1ccccc1C(C[N+](=O)[O-])c1c[nH]c2ccccc12 (stereo not drawn),"inconclusive: 29.1 µM [activator, single point]",
COc1ccc(C(=O)Nc2ccc(Cl)cc2C(=O)NCCN2CCOCC2)cc1,,inactive: 1.24% [at 9.22 µM]
COC(=O)c1ccccc1S(=O)(=O)N1CCC(C(=O)NCc2ccco2)CC1,inactive,
CC(=O)NC(c1ccccc1)c1cc(Cl)c2cccnc2c1O (stereo not drawn),"inconclusive: 2.91 µM [activator, full curve]",
Cc1cccc(C(=O)NCCN2CCN(c3ccccc3)CC2)c1,"inconclusive: 29.1 µM [activator, single point]",
COc1ccccc1CO/N=C/NC(=O)c1c(OC)ccnc1Oc1ccc(F)cc1,"inconclusive: 0.82 µM [activator, partial curve, poor fit]",
COc1ccc(COCC(O)CN2CCN(S(=O)(=O)c3c(F)cccc3F)CC2)cc1OC (stereo not drawn),,inconclusive: 59.6% [activator]
N#C/C(=N\Nc1cccc2ccccc12)c1nnc2n1CCCCC2,"inconclusive: 29.1 µM [activator, single point]",
COCCCNC(=S)N1CCN(c2nc3ccccc3s2)CC1,inactive,
Cc1ccccc1C(=O)NNC(=O)Cc1ccccc1,"inconclusive: 23.1 µM [activator, single point]",
CCCCC/C(C=O)=C/c1ccccc1,inactive,
Cc1ccc(S(=O)(=O)CCC(=O)Nc2nnc(-c3ccco3)o2)cc1,"inconclusive: 16.4 µM [activator, partial curve, poor fit]",
Cc1cc(C)c2c(N)c(C(=O)NN)sc2n1,"inconclusive: 20.6 µM [activator, single point]",
S=C(NCc1ccco1)NCC(c1ccco1)N1CCCCC1 (stereo not drawn),"inconclusive: 0.206 µM [activator, full curve, poor fit]",
COc1ccc2nc3cccc(OC)c3nc2c1,"inconclusive: 29.1 µM [activator, single point]",
Cc1cccc(NC(=O)CN2C(=S)NC(C)(C)CC2C)c1C (stereo not drawn),inactive,
CCOc1ccccc1/C=C/c1onc(C)c1S(=O)(=O)N1CCC(C(=O)N2CCCCCC2)CC1,inactive,
COc1ccc(CNC(=O)C2CCN(S(=O)(=O)N3CCC4(CC3)OCCO4)CC2)c(OC)c1,"inconclusive: 5.17 µM [activator, partial curve, poor fit]",
Cc1cc(C(=O)COC(=O)c2ccc(F)cc2)c(C)n1C,inactive,

# Some of the entries so far, bar-delimited.
Structure (SMILES) | Potency | re-replication activation
O=C(C[n+]1cccc(CNC(=O)c2ccc(OC(F)F)cc2)c1)Nc1ccccc1Cl | inconclusive: 4.61 µM [activator, full curve, poor fit] | 
Cc1ccc(SCC(=O)OCC(=O)Nc2ccc3[nH]c(=O)[nH]c3c2)cc1C | inconclusive: 0.82 µM [activator, full curve, poor fit] | 
CC1(C)C2CCC1(CS(=O)(=O)N1CCN(c3ccc(F)cc3)CC1)C(=O)C2 (stereo not drawn) | inconclusive: 23.1 µM [activator, partial curve, poor fit] | 
COc1cc(/C=N/NC(=O)c2cc(-c3ccccc3C)nc3ccccc23)cc(OC)c1O | inactive | 
NC(=O)c1cc([N+](=O)[O-])ccc1NCc1ccc(O)cc1 | inconclusive: 29.1 µM [activator, partial curve, poor fit] | 
COc1ccc(NS(=O)(=O)c2ccc(NC(=O)c3ccccc3)cc2)nn1 | inconclusive: 25.9 µM [activator, partial curve, poor fit] | 

# Later entries:

Structure (SMILES),Potency,re-replication activation
Cc1csc(N2CCN(c3cc4c(cc3Cl)nc(-c3ccncc3)n4CCCN3CCCC3)CC2)n1,"inconclusive: 0.116 µM [activator, full curve, poor fit]",
CC(C)C[C@@H](CN1CCCC1CN1C(=S)NC[C@@H]1Cc1ccc(O)cc1)N1C[C@H](Cc2ccccc2)N(CC2CCCCC2)C1=S (stereo partly drawn),"inconclusive: 16.4 µM [activator, single point]",
NC(N)=NS(=O)(=O)c1ccc(NC(=S)NC(=O)Cc2ccc(Cl)cc2)cc1,inactive,
S=C(NCc1cccc(Cl)c1)NCc1ccco1,"inconclusive: 8.2 µM [activator, partial curve, poor fit]",
COc1cc(NS(=O)(=O)c2ccc(OC)c(C)c2C)c(OC)cc1Cl,active: 5.62 µM,
Cc1ccc(NC(=O)CNC(=O)c2ccc(OC(F)F)cc2)cc1S(=O)(=O)N1CCCCCC1,"inconclusive: 29.1 µM [activator, single point]",
CN1CCN(c2ccc(S(=O)(=O)N3CCCCC3)cc2NC(=O)COc2cccc(Cl)c2)CC1,"inconclusive: 20.6 µM [activator, single point]",
Cc1c(S(=O)(=O)NC2CCCCCC2)c(=O)n(C)c(=O)n1C,"inconclusive: 6.51 µM [activator, single point]",
CC(C)CCN1NC2(CCCC(C)C2)NC1=S (stereo not drawn),"inconclusive: 6.51 µM [activator, partial curve]",
Cn1c(=N)n(CC(O)c2cccc3ccccc23)c2ccccc21 (stereo not drawn),"inconclusive: 29.1 µM [activator, single point]",
CCN=C(NS(=O)(=O)c1ccc(Br)cc1)c1ccc(Cl)cc1,inactive,
O=C(N=C1SC2CS(=O)(=O)CC2N1Cc1ccc(Cl)cc1)C1CCCO1 (stereo not drawn),inactive,
Oc1ccc(N=Nc2cccc(C(F)(F)F)c2)cc1C=Nc1ccc(N2CCOCC2)cc1,"inconclusive: 2.59 µM [activator, full curve, poor fit]",
CS(=O)(=O)NC1c2cccc3cccc(c23)C1Sc1nncn1/N=C/c1ccco1 (stereo not drawn),inactive,
CCc1ccc(N2C(=O)c3sc4nnc(-c5ccccc5)c(=O)n4c3C2=O)cc1,"inconclusive: 25.9 µM [activator, partial curve, poor fit]",
CCOCCCn1c(SCC(=O)Nc2cc(OC)ccc2OC)nc2ccccc2c1=O,"inconclusive: 9.2 µM [activator, partial curve]",
O=C(Oc1ccccc1N1CCOCC1)c1ccccc1,"inconclusive: 18.4 µM [activator, single point]",
C#C[C@]1(OC(C)=O)CC[C@H]2[C@@H]3CCC4=C[C@@H](OC(C)=O)CC[C@@H]4[C@H]3CC[C@@]21C,inactive,
C#CCOc1c(Br)cc(/C=N\NC(=O)CN2CCOCC2)cc1OCC,inactive,
O=C(OCC(=O)N(CCc1ccccc1)Cc1ccccc1)c1ccccc1O,"inconclusive: 29.1 µM [activator, single point]",
COC(=O)CCC(C)N1CCC(Oc2ccc(C(=O)N3CCCC3)cc2)CC1 (stereo not drawn),"inconclusive: 23.1 µM [activator, single point]",
Cc1ccc(C2=NC3(CCCC3)N=C2SCC(=O)Nc2ccc3c(c2)OCCO3)cc1,active: 20.6 µM,
